According to PubChem BioAssay AID720504 (National Center for Advancing Translational Sciences (NCATS), 2013):
Hit rate of the full screen: of about 360,000 compounds, about 10,000 (2.8%) were called active. Inconclusive means that the source gave no clear call. Such entries were picked first, then a sample of the others. Calls come from the whole dose curve; as a rule, active = well fitted inhibition curve with a large enough effect; inconclusive = small, poorly fitted or top-dose-only effect; inactive = flat fitted curve, though single readings scatter. A potency beside an inconclusive call is a rough fit, not a confirmed value.

Sequences of proteins named here, by UniProt entry; tags and fusion partners are left off.
UniProt P53350, whole entry, looked up: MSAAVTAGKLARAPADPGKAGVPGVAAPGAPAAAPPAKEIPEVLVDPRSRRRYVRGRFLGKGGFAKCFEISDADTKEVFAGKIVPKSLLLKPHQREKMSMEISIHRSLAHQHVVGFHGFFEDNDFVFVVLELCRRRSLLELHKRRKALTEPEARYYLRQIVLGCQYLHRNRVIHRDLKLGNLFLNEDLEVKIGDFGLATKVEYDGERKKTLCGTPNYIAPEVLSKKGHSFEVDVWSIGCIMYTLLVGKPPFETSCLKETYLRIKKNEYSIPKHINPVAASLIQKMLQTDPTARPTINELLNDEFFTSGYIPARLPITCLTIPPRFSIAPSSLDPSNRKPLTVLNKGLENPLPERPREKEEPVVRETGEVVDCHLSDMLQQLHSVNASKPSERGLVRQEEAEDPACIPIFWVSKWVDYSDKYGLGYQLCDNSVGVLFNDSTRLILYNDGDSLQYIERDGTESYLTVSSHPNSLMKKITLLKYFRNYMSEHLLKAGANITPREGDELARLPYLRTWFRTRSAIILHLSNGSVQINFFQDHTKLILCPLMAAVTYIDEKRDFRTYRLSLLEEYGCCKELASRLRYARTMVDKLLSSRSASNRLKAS

Target: Serine/threonine-protein kinase PLK1 (Homo sapiens) (UniProt P53350)
Assay: qHTS for Inhibitors of PLK1-PDB (polo-like kinase 1 - polo-box domain): Primary Screen; note: nearly all actives have a fitted effect of over 65% in size; for max response, negative = inhibition: series mostly up to about 57 µM
Conditions: Plk1 PBD binding of FITC phosphopeptide, fluorescence polarization
% is set by controls: 0 for no effect and ±100 for the full control effect; potency is the fitted concentration of half-maximal effect.

Row | SMILES | Potency | max response, negative = inhibition
1 | COC(=O)c1ccc(CSc2n[nH]c(=S)s2)o1 | inconclusive: 23.8 µM [inhibitor, partial curve] | –
2 | Cc1sc(NC(=S)Nc2ccc(F)cc2)c(C(N)=O)c1C | inconclusive: 18.9 µM [inhibitor, partial curve] | –
3 | CC(=O)c1cccc(OCC(=O)N(C)CC(=O)NCc2ccco2)c1 | inconclusive: 29.9 µM [inhibitor, partial curve] | –
4 | Cc1cc(Nc2cc(F)ccc2C)n2nc(C)nc2n1 | inconclusive: 26.7 µM [inhibitor, partial curve] | –
5 | COC(=O)c1cc(S(=O)(=O)N2CCN(c3ccc(C(C)=O)cc3)CC2)c[nH]1 | – | inactive: -10.8%
6 | CCCS(=O)(=O)Nc1cccc(-c2cn3c(n2)SCC3)c1 | inconclusive: 29.9 µM [inhibitor, partial curve] | –
7 | CCSC1OC(C(COC(C)=O)OC(C)=O)C(OC(C)=O)C1NC(C)=S (centres undefined) | inconclusive: 18.9 µM [inhibitor, partial curve] | –
8 | CC(=O)c1ccc(NC(=O)C(C)N2CCN(C/C=C/c3ccccc3)CC2)cc1 (centres undefined) | – | inactive: -12%
9 | COc1ccc(NC(=O)Nc2sc(NS(=O)(=O)c3ccccc3)nc2C)cc1 | inconclusive: 29.9 µM [inhibitor, single point] | –
10 | N#Cc1cc2c(nc1SCC(N)=O)CCCCC2 | inconclusive: 10.6 µM [inhibitor, partial curve] | –
11 | CCN(CC)CCn1c(NC(=O)c2ccc(C)cc2)nc2ccccc21 | – | inactive: -4.86%
12 | CCN1CCN(C(=O)c2ccc3c(c2)c(C)c(C)n3Cc2ccccc2)CC1 | – | inactive: -2.36%
13 | CCOC(=O)C1=CN(Cc2ccccc2)CCC1=O | – | inconclusive: -30.5% [inhibitor]
14 | O=C(Cn1cnc([N+](=O)[O-])c1)Nc1ccc(Cl)cc1Cl | – | inconclusive: -17.1% [inhibitor]
15 | COc1ccc(C(=O)Nc2c(O)ccc3ccccc23)cc1 | inconclusive: 26.7 µM [inhibitor, partial curve] | –
16 | COc1ccc(/C=C2\CCCC(C(=O)C(F)(F)F)=C2O)cc1 | inconclusive: 21.2 µM [inhibitor, partial curve] | –
17 | Cc1cc(=O)[nH]c(-n2ncc(C#N)c2N)n1 | – | inactive: 2.24%
18 | O=c1c2cc(F)ccc2sn1-c1ccccc1 | active: 1.06 µM | –
19 | CC1SC(c2cccc(Cl)c2)NC1=O (centres undefined) | active: 23.8 µM | –
20 | COc1cc(C2c3c(-c4ccccc4)n[nH]c3C(=O)N2c2ccc(C(=O)O)cc2)ccc1O (centres undefined) | inconclusive: 75.2 µM [inhibitor, single point] | –
21 | COC(=O)Cc1ccc(NC(=S)Nc2ccc(N3CCOCC3)cc2)cc1 | inconclusive: 29.9 µM [inhibitor, single point] | –
22 | CCCCSC(=O)Nc1ccccc1 | inconclusive: 26.7 µM [inhibitor, partial curve, poor fit] | –

Record cards (already shown).
CCSC1OC(C(COC(C)=O)OC(C)=O)C(OC(C)=O)C1NC(C)=S (centres undefined) in the list: Potency: inconclusive: 18.9 µM [inhibitor, partial curve]
CCOC(=O)C1=CN(Cc2ccccc2)CCC1=O in the list: max response, negative = inhibition: inconclusive: -30.5% [inhibitor]

Additional structures

Row | SMILES | Potency | max response, negative = inhibition
23 | Cc1c(Cc2ccc3c(c2)OCO3)sc(NC(=O)c2ccccc2)c1C(N)=O | inconclusive: 26.7 µM [inhibitor, partial curve] | –
24 | CN(C(=O)CN1C(=O)/C(=C/c2ccc(F)cc2)SC1=S)C1CCS(=O)(=O)C1 (centres undefined) | inconclusive: 29.9 µM [inhibitor, partial curve] | –
25 | O=C(CNc1ccc(Br)cc1)c1ccc(O)cc1 | inconclusive: 26.7 µM [inhibitor, single point] | –
26 | O=C(NC(=S)NC(=O)c1ccccc1F)c1ccccc1F | inconclusive: 4.74 µM [inhibitor, full curve] | –
27 | Cc1ccc(C2=CC(c3ccccc3)n3ncnc3N2)c(C)c1 (centres undefined) | – | inconclusive: -9.07% [inhibitor]
28 | O=S(=O)(Nc1cc2nc3ccccc3nc2n1Cc1ccccc1)c1ccc(Cl)cc1 | inconclusive: 11.9 µM [inhibitor, partial curve] | –
29 | FC(F)(F)C1=Nc2cccc3cccc(c23)N1 | active: 7.52 µM | –
30 | C=CCSC1=N/C(=C\C=C\c2ccco2)C(=O)S1 | inconclusive: 21.2 µM [inhibitor, partial curve] | –
31 | Cc1ccc(Cn2c(C3CCCN3c3nc(-c4cc(Cl)c(N)c(Cl)c4)cs3)nc3cc(C(=O)NCCCO)ccc32)cc1 (centres undefined) | inconclusive: 33.6 µM [inhibitor, single point] | –
32 | CSc1ccccc1NC(=O)c1cc(C(C)C)on1 | inconclusive: 21.2 µM [inhibitor, partial curve] | –
33 | CCCCNc1c2c3c(cccc3n(C)c1=O)C(=O)c1ccccc1-2 | active: 2.38 µM | –
34 | CN(C)c1ccc(-c2[nH][nH]c(=O)c2NC(=O)c2ccc3ccccc3n2)cc1 | inconclusive: 26.7 µM [inhibitor, partial curve] | –
35 | CCn1c(=S)[nH]c2sc3c(c2c1=O)CCCCC3 | active: 23.8 µM | –
36 | CCOC(=O)c1ccc(NC(=O)C23CCC(C)(C(=O)O2)C3(C)C)cc1 (centres undefined) | – | inactive: -6.33%
37 | CCN(CC)C(=O)c1sc(N)c(C(=O)OC(C)C)c1C | inconclusive: 29.9 µM [inhibitor, partial curve] | –
38 | Cc1ccc(NC(=O)Cn2c(O)c(N=NS(=O)(=O)c3ccc(C)cc3)c3ccccc32)cc1 | active: 26.7 µM | –
39 | Cc1ccccc1NC(=O)CSC(N)=O | inconclusive: 26.7 µM [inhibitor, partial curve] | –
40 | COC(=O)c1c(NC(=O)C(C)C)sc(C(=O)N2CCOCC2)c1C | inconclusive: 11.9 µM [inhibitor, partial curve] | –
41 | O=C(Cc1ccccc1[N+](=O)[O-])NCCCc1ccccc1 | inconclusive: 37.7 µM [inhibitor, single point] | –
42 | CCOC(=O)C1=C(C)N(c2ccccc2)C(=O)/C1=C\c1ccc(O)c(OC)c1 | inconclusive: 21.2 µM [inhibitor, partial curve] | –
43 | COc1ccc(C(CC(=O)Nc2ncccc2C)N2Cc3ccccc3C2=O)cc1 (centres undefined) | inconclusive: 33.6 µM [inhibitor, partial curve] | –
44 | O=C(N/N=C/c1ccc(-c2ccc(Cl)c(C(=O)O)c2)o1)c1cc2c(ccc3ccccc32)o1 | inconclusive: 26.7 µM [inhibitor, single point] | –
